In paper PMC3814369:
No constants are given. Whether binding was seen depends on the method and setting. Some binding calls cover weakened binding; strength is not graded here.

The chains behind the UniProt entries cited, without tags or fusion partners.
UniProt P38633: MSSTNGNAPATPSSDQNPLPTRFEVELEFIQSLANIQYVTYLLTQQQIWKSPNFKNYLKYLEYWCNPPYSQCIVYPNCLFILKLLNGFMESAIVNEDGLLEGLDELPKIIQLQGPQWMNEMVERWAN
UniProt Q08278: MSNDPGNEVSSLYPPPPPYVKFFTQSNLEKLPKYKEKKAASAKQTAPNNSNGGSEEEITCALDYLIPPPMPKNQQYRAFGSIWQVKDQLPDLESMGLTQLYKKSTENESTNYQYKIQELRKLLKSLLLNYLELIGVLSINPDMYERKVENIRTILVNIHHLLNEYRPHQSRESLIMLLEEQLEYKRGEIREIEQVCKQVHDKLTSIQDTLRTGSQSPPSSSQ
UniProt Q12343: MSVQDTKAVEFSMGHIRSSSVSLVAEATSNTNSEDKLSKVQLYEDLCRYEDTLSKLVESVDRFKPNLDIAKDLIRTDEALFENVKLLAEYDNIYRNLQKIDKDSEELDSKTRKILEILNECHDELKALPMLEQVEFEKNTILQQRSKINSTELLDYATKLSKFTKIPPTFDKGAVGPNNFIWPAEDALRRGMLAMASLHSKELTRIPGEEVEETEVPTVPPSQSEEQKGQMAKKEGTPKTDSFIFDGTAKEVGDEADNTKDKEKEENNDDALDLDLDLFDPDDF
UniProt Q06213: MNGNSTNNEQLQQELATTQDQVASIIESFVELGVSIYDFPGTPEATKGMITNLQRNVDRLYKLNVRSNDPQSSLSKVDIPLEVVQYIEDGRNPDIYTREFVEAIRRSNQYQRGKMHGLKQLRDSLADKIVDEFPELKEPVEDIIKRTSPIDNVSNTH
UniProt P47822: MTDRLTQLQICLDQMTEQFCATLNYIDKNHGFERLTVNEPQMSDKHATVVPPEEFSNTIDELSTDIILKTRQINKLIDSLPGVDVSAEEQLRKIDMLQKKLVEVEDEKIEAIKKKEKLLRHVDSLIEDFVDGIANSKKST

Legend:
[1] = target: Med31 (Soh1) (S. cerevisiae) (UniProt P38633); test: co-purification (Ni-NTA affinity, anion exchange, size exclusion); six subunits co-expressed in E. coli from a single plasmid; complex captured by the deca-histidine tag on Med31 on Ni-NTA agarose (50 mM Tris pH 8.0, 150 mM NaCl, 5 mM DTT), then HiTrap Q and Superdex 200; subunits seen by SDS-PAGE
Med7 (S. cerevisiae) = Med7 (S. cerevisiae) (UniProt Q08278); test: cross-linking; purified 6-subunit middle module, 0.5 mg/ml in 1x PBS, 2 mM DTT; 0.7 mM isotopically coded CBDPS, 30 min at 30°C; trypsin and/or GluC digest, avidin enrichment, LC-MS/MS (lysine-lysine cross-links); both purified

binding [1] | binding (Med7 (S. cerevisiae)) | Substance
binds |  | Med4 (from UniProt Q12343 1-284)
binds |  | Med7 (from UniProt Q08278 1-222)
binds | binds | Med10 (Nut2) (from UniProt Q06213 1-157)
binds | binds | Med21 (Srb7) (from UniProt P47822 1-140)
